# Some entries share one result that the patent states for a list of compounds.
# Target: T1, human AR (Homo sapiens, UniProt P10275)
# T1 sequence (P10275 560-920 limits assumed): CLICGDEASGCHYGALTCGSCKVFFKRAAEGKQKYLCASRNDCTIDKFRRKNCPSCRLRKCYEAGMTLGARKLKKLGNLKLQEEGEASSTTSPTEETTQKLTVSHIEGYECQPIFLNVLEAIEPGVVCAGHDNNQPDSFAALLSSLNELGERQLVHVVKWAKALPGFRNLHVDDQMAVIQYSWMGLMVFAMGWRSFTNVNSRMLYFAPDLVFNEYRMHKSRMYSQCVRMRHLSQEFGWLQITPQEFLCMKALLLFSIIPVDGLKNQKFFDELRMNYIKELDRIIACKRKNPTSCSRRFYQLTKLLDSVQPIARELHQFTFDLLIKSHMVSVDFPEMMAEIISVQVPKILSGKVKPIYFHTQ
# Test: AR functional assay (agonist mode), MMTV luciferase reporter in transfected CV-1 cells
# Type: cell-based
# Details: CV-1 cells transfected with human AR and MMTV luciferase, values said to be exemplary only
row,Compound,pIC50 in the agonist mode of the AR functional assay
1,"Cc1cc2c(Cl)c(C#N)ccc2n1Cc1noc(-c2cc(C(F)(F)F)cc(C(F)(F)F)c2)n1 [Example 223, 1-({5-[3,5-bis(Trifluoromethyl)phenyl]-1,2,4-oxadiazol-3-yl}methyl)-4-chloro-2-methyl-1H-indole-5-carbonitrile]",≥ 5.01
2,"Cc1noc(C)c1-c1nc(Cn2c(C)cc3c(Cl)c(C#N)ccc32)no1 [Example 224, 4-Chloro-1-{[5-(3,5-dimethyl-4-isoxazolyl)-1,2,4-oxadiazol-3-yl]methyl}-2-methyl-1H-indole-5-carbonitrile]",≥ 5.01
3,"Cc1cc2c(Cl)c(C#N)ccc2n1CCOc1ccc(F)cc1F [Example 225, 4-Chloro-1-{2-[(2,4-difluorophenyl)oxy]ethyl}-2-methyl-1H-indole-5-carbonitrile]",≥ 5.01
4,"Cc1cc2c(Cl)c(C#N)ccc2n1CCOc1ccc(F)cc1 [Example 226, 4-Chloro-1-{2-[(4-fluorophenyl)oxy]ethyl}-2-methyl-1H-indole-5-carbonitrile]",≥ 5.01
5,"CC(=O)Nc1ccc(OCCn2c(C)cc3c(Cl)c(C#N)ccc32)cc1 [Example 227, N-(4-{[2-(4-Chloro-5-cyano-2-methyl-1H-indol-1-yl)ethyl]oxy}phenyl)acetamide]",≥ 5.01
6,"N#Cc1ccc2c(cc(C(F)(F)F)n2Cc2noc(-c3cc(C(F)(F)F)cc(C(F)(F)F)c3)n2)c1Cl [Example 228, 1-({5-[3,5-bis(Trifluoromethyl)phenyl]-1,2,4-oxadiazol-3-yl}methyl)-4-chloro-2-(trifluoromethyl)-1H-indole-5-carbonitrile]",≥ 5.01
7,"Cc1noc(C)c1-c1nc(Cn2c(C(F)(F)F)cc3c(Cl)c(C#N)ccc32)no1 [Example 229, 4-Chloro-1-{[5-(3,5-dimethyl-4-isoxazolyl)-1,2,4-oxadiazol-3-yl]methyl}-2-(trifluoromethyl)-1H-indole-5-carbonitrile]",≥ 5.01
8,"CCCc1cc2c(C#N)c(C#N)ccc2n1Cc1noc(-c2cc(C(F)(F)F)cc(C(F)(F)F)c2)n1 [Example 230, 1-({5-[3,5-bis(Trifluoromethyl)phenyl]-1,2,4-oxadiazol-3-yl}methyl)-2-propyl-1H-indole-4,5-dicarbonitrile]",≥ 5.01
9,"CCCc1cc2c(C#N)c(C#N)ccc2n1Cc1noc(-c2cccc(C(F)(F)F)c2)n1 [Example 232, 2-Propyl-1-({5-[3-(trifluoromethyl)phenyl]-1,2,4-oxadiazol-3-yl}methyl)-1H-indole-4,5-dicarbonitrile]",≥ 5.01
10,"CCCc1cc2c(C#N)c(C#N)ccc2n1Cc1nnc(-c2cncc(Br)c2)o1 [Example 233, 1-{[5-(5-Bromo-3-pyridinyl)-1,3,4-oxadiazol-2-yl]methyl}-2-propyl-1H-indole-4,5-dicarbonitrile]",≥ 5.01
11,"N#Cc1ccc2c(cc(CCC(F)(F)F)n2Cc2noc(-c3cccc(C(F)(F)F)c3)n2)c1Cl [Example 234, 4-Chloro-1-({5-[3-(trifluoromethyl)phenyl]-1,2,4-oxadiazol-3-yl}methyl)-2-(3,3,3-trifluoropropyl)-1H-indole-5-carbonitrile]",≥ 5.01
12,"CCCc1cc2c(Cl)c(C#N)ccc2n1Cc1noc(-c2cc(Cl)nc(Cl)c2)n1 [Example 235, 4-Chloro-1-{[5-(2,6-dichloro-4-pyridinyl)-1,2,4-oxadiazol-3-yl]methyl}-2-propyl-1H-indole-5-carbonitrile]",≥ 5.01
13,"CCCc1cc2c(Cl)c(C#N)ccc2n1Cc1noc(-c2c(C)noc2C(F)(F)F)n1 [Example 236, 4-Chloro-1-({5-[3-methyl-5-(trifluoromethyl)-4-isoxazolyl]-1,2,4-oxadiazol-3-yl}methyl)-2-propyl-1H-indole-5-carbonitrile]",≥ 5.01
14,"CCCc1cc2c(Cl)c(C#N)ccc2n1Cc1noc(-c2cc(C)nn2C)n1 [Example 237, 4-Chloro-1-{[5-(1,3-dimethyl-1H-pyrazol-5-yl)-1,2,4-oxadiazol-3-yl]methyl}-2-propyl-1H-indole-5-carbonitrile]",≥ 5.01
15,"CCCc1cc2c(Cl)c(C#N)ccc2n1Cc1noc(-c2c(C(F)(F)F)nn(C)c2Cl)n1 [Example 238, 4-Chloro-1-({5-[5-chloro-1-methyl-3-(trifluoromethyl)-1H-pyrazol-4-yl]-1,2,4-oxadiazol-3-yl}methyl)-2-propyl-1H-indole-5-carbonitrile]",≥ 5.01
16,"CCCc1cc2c(Cl)c(C#N)ccc2n1Cc1noc(-c2cnn(C)c2C(F)(F)F)n1 [Example 239, 4-Chloro-1-({5-[1-methyl-5-(trifluoromethyl)-1H-pyrazol-4-yl]-1,2,4-oxadiazol-3-yl}methyl)-2-propyl-1H-indole-5-carbonitrile]",≥ 5.01

row,Compound,pIC50 in the agonist mode of the AR functional assay
1,"CCCc1cc2c(Cl)c(C#N)ccc2n1Cc1noc(-c2cn(C)nc2C(F)(F)F)n1 [Example 240, 4-Chloro-1-({5-[1-methyl-3-(trifluoromethyl)-1H-pyrazol-4-yl]-1,2,4-oxadiazol-3-yl}methyl)-2-propyl-1H-indole-5-carbonitrile]",≥ 5.01
2,N#Cc1ccc2c(ccn2Cc2noc(-c3cc(F)c(F)c(F)c3)n2)c1C(F)(F)F [Example 242],≥ 5.01
3,"N#Cc1ccc2c(ccn2Cc2noc(-c3c(F)cc(F)cc3F)n2)c1C(F)(F)F [Example 243, 4-(Trifluoromethyl)-1-{[5-(2,4,6-trifluorophenyl)-1,2,4-oxadiazol-3-yl]methyl}-1H-indole-5-carbonitrile]",≥ 5.01
4,"N#Cc1ccc2c(ccn2Cc2noc(-c3ccc(Cl)c(F)c3)n2)c1C(F)(F)F [Example 244, 1-{[5-(4-Chloro-3-fluorophenyl)-1,2,4-oxadiazol-3-yl]methyl}-4-(trifluoromethyl)-1H-indole-5-carbonitrile]",≥ 5.01
5,"N#Cc1ccc2c(ccn2Cc2noc(-c3ccc(OC(F)(F)F)c(Cl)c3)n2)c1C(F)(F)F [Example 245, 1-[(5-{3-Chloro-4-[(trifluoromethyl)oxy]phenyl}-1,2,4-oxadiazol-3-yl)methyl]-4-(trifluoromethyl)-1H-indole-5-carbonitrile]",≥ 5.01
6,"N#Cc1ccc2c(ccn2Cc2noc(-c3cccc(Cl)c3F)n2)c1C(F)(F)F [Example 246, 1-{[5-(3-Chloro-2-fluorophenyl)-1,2,4-oxadiazol-3-yl]methyl}-4-(trifluoromethyl)-1H-indole-5-carbonitrile]",≥ 5.01
7,"N#Cc1ccc2c(ccn2Cc2noc(-c3cc(Cl)cc(Cl)c3)n2)c1C(F)(F)F [Example 247, 1-{[5-(3,5-Dichlorophenyl)-1,2,4-oxadiazol-3-yl]methyl}-4-(trifluoromethyl)-1H-indole-5-carbonitrile]",≥ 5.01
8,"N#Cc1ccc2c(ccn2Cc2noc(-c3cccc(Cl)c3Cl)n2)c1C(F)(F)F [Example 248, 1-{[5-(2,3-Dichlorophenyl)-1,2,4-oxadiazol-3-yl]methyl}-4-(trifluoromethyl)-1H-indole-5-carbonitrile]",≥ 5.01
9,"N#Cc1ccc2c(ccn2Cc2noc(-c3ccc(F)c(Cl)c3F)n2)c1C(F)(F)F [Example 249, 1-{[5-(3-Chloro-2,4-difluorophenyl)-1,2,4-oxadiazol-3-yl]methyl}-4-(trifluoromethyl)-1H-indole-5-carbonitrile]",≥ 5.01
10,"N#Cc1ccc2c(ccn2Cc2noc(-c3cc(Cl)ccc3Cl)n2)c1C(F)(F)F [Example 250, 1-{[5-(2,5-Dichlorophenyl)-1,2,4-oxadiazol-3-yl]methyl}-4-(trifluoromethyl)-1H-indole-5-carbonitrile]",≥ 5.01
11,"N#Cc1ccc2c(ccn2Cc2noc(-c3cc(Cl)ccc3F)n2)c1C(F)(F)F [Example 251, 1-{[5-(5-Chloro-2-fluorophenyl)-1,2,4-oxadiazol-3-yl]methyl}-4-(trifluoromethyl)-1H-indole-5-carbonitrile]",≥ 5.01
12,"N#Cc1ccc2c(ccn2Cc2noc(-c3cc(F)c(F)c(Cl)c3)n2)c1C(F)(F)F [Example 252, 1-{[5-(3-Chloro-4,5-difluorophenyl)-1,2,4-oxadiazol-3-yl]methyl}-4-(trifluoromethyl)-1H-indole-5-carbonitrile]",≥ 5.01
13,"N#Cc1ccc2c(ccn2Cc2noc(-c3cc(F)c(-n4ccnc4)c(Cl)c3F)n2)c1C(F)(F)F [Example 254, 1-({5-[3-Chloro-2,5-difluoro-4-(1H-imidazol-1-yl)phenyl]-1,2,4-oxadiazol-3-yl}methyl)-4-(trifluoromethyl)-1H-indole-5-carbonitrile]",≥ 5.01
14,"CC(c1nc(-c2ccc(F)cc2)no1)n1ccc2c(C(F)(F)F)c(C#N)ccc21 (stereo not shown) [Example 256, 1-{1-[3-(4-Fluorophenyl)-1,2,4-oxadiazol-5-yl]ethyl}-4-(trifluoromethyl)-1H-indole-5-carbonitrile]",≥ 5.01
15,"CCCc1cc2c(C(F)(F)F)c(C#N)ccc2n1Cc1cc(-c2ccccc2)no1 [Example 258, 1-[(3-Phenyl-5-isoxazolyl)methyl]-2-propyl-4-(trifluoromethyl)-1H-indole-5-carbonitrile]",≥ 5.01
